Results are given in words; binding and its absence hold for the method and conditions named. Some entries that bind do so weakly or less than the wild type.
How the values were obtained:
[1] = target: antigen CD27 (soluble, as used in the BLI and SPR experiments) (UniProt P26842); assay: BLI epitope binning
[2] = target: CD27-mFc (Kangdai) (human) (UniProt P26842); assay: ELISA: 13B3-hFc coated, CD27-mFc 0.8 µg/mL with 1F5 dilutions
[3] = target: CD27-mFc (Kangdai) (human) (UniProt P26842); assay: ELISA on coated CD27-mFc, method of Example 3.1 (Example 9.1)
[4] = target: CD27-mFc (Kangdai) (human) (UniProt P26842); assay: competition ELISA: coated CD70 (1 ug/mL), CD27-mFc fixed at 4.3 ug/mL plus antibody dilution, HRP anti-mouse Fc detection; blocked ligand CD70 (Example 3.5)
[5] = target: CD27-mFc (Kangdai) (human) (UniProt P26842); assay: ELISA on coated CD27-mFc
[6] = target: CD27-mFc (Kangdai) (human) (UniProt P26842); assay: competition ELISA: coated CD70, fixed CD27-mFc plus antibody dilution, method of Example 3.5 (Example 10); blocked ligand CD70; x axis printed -0.5 to 1.0 under the label Ab Con.ug/mL
[7] = target: CD27-mFc (Kangdai) (human) (UniProt P26842); assay: ELISA on coated CD27-mFc (1 ug/mL), anti-human IgG Fc detection (Example 3.1)
[8] = target: antigen CD27 (soluble, as used in the BLI and SPR experiments) (UniProt P26842); assay: BLI, antibody captured on the probe, then antigen CD27 (Example 4.1)
[9] = target: CD27-mFc (Kangdai) (human) (UniProt P26842); assay: ELISA, hybridoma supernatant on coated CD27-mFc
[10] = target: CD27-mFc (Kangdai) (human) (UniProt P26842); assay: hybridoma screening ELISA
[11] = target: antigen CD27 (soluble, as used in the BLI and SPR experiments) (UniProt P26842); assay: BLI epitope binning, CD27 held by 13B3 on the probe

Amino acid sequences for entries named in this document (tags omitted). Residues count along the entry.
UniProt P26842, residues 21-192: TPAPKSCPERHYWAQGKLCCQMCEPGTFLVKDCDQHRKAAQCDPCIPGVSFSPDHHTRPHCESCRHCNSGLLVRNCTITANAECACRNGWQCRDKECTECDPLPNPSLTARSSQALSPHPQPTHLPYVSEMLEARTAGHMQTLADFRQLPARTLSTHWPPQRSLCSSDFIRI

Binder | binding [3] | binding [5] | binding [6] | binding [9] | binding [10] | also measured
13B3-hFc human-mouse chimeric CD27 monoclonal antibody (antibody, V domains shown) VH: QVQLQQSGPEQVKPGASVKISCKTSGYAFSQSWMNWVKQRPGQGLEWIGRIYPGDGDTNYNGIFKGKATLTADKSSSTAYMQLSSLTSLDSAVYFCASMIRTTYVMDHWGQGTSVTVTS VL: DIVLTQSPATLSVTPGDSVSLSCRASQSVSNSLHWYQQKSHESPRLLIMYTSQSISGIPSRFSGSGSGTDFTLSINSVETEDFGMYFCQQSNSWPLTFGAGTKLELK | binds | binds | binds |  |  | binding [1]: binds; binding [2]: binds; binding [4]: binds; binding [7]: binds; binding [8]: binds
13B3 anti-human CD27 mouse monoclonal antibody (hybridoma clone) (antibody, V domains shown) VH: QVQLQQSGPEQVKPGASVKISCKTSGYAFSQSWMNWVKQRPGQGLEWIGRIYPGDGDTNYNGIFKGKATLTADKSSSTAYMQLSSLTSLDSAVYFCASMIRTTYVMDHWGQGTSVTVTS VL: DIVLTQSPATLSVTPGDSVSLSCRASQSVSNSLHWYQQKSHESPRLLIMYTSQSISGIPSRFSGSGSGTDFTLSINSVETEDFGMYFCQQSNSWPLTFGAGTKLELK |  |  |  | binds | binds | 
13B3-huH4L1 (P33425) humanized CD27 monoclonal antibody (antibody, V domains shown) VH: QVQLVQSGAEVKKPGASVKVSCKTSGYAFSQSWMNWVRQAPGQGLEWMGRIYPGDGDTNYAQKFQGRVTMTADTSISTAYMELSRLRSDDTAVYYCASMIRTTYVMDHWGQGTTVTVSS VL: EIVLTQSPDFLSVTPKEKVTLTCRASQSVSNSLHWYQQKPDQSPKLLIMYTSQSISGIPSRFSGSGSGTDFTLTINSVEAEDAATYYCQQSNSWPLTFGGGTKLELK | binds | binds |  |  |  | 
13B3-huH4L3 (P33432) humanized CD27 monoclonal antibody (antibody, V domains shown) VH: QVQLVQSGAEVKKPGASVKVSCKTSGYAFSQSWMNWVRQAPGQGLEWMGRIYPGDGDTNYAQKFQGRVTMTADTSISTAYMELSRLRSDDTAVYYCASMIRTTYVMDHWGQGTTVTVSS VL: DIVLTQSPATLSVSPGERVTLSCRASQSVSNSLHWYQQKPGQAPRLLIMYTSQSISGIPARFSGSGSGTDFTLTISSVEPEDFAVYYCQQSNSWPLTFGGGTKLELK |  |  | binds |  |  | 
13B3-huH2L2 (P33426) humanized CD27 monoclonal antibody (antibody, V domains shown) VH: QVQLVQSGAEVKKPGASVKVSCKTSGYAFSQSWMNWVRQAPGQGLEWIGRIYPGDGDTNYNGIFKGRVTLTADKSSSTAYMELSRLRSDDTAVYYCASMIRTTYVMDHWGQGTTVTVSS VL: IVLTQSPDFQSVTPKEKVTITCRASQSVSNSLHWYQQKPDQSPKLLIMYTSQSISGVPSRFSGSGSGTDFTLTINSLEAEDAATYYCQQSNSWPLTFGGGTKLELK | binds | binds | binds |  |  | 
13B3-huH3L4 (P33434) humanized CD27 monoclonal antibody (antibody, V domains shown) VH: QVQLVQSGAEVKKPGASVKVSCKTSGYAFSQSWMNWVRQAPGQGLEWIGRIYPGDGDTNYNGIFQGRVTLTADTSISTAYMELSRLRSDDTAVYYCASMIRTTYVMDHWGQGTTVTVSS VL: EIVLTQSPATLSLSPGERATLSCRASQSVSNSLHWYQQKPGQAPRLLIMYTSQSISGIPARFSGSGSGTDFTLTISSLEPEDFAVYYCQQSNSWPLTFGGGTKLELK | binds | binds | binds |  |  | 

Second part, led by results:

binding [3] | binding [5] | binding [6] | binding [9] | binding [10] | Binder | also measured
 |  |  | binds | binds | 16B1 anti-human CD27 mouse monoclonal antibody (hybridoma clone) (antibody, V domains shown) VH: QVQLQQSGPEQVKPGASVKISCKTSGYAFSQSWMNWVKQRPGQGLEWIGRIYPGDGDTNYNGIFKGKATLTADKSSSTAYMQLSSLTSLDSAVYFCASMIRTTYVMDHWGQGTSVTVTS VL: DIVLTQSPATLSVTPGDSVSLSCRASQSVSNSLHWYQQKSHESPRLLIMYTSQSISGIPSRFSGSGSGTDFTLSINSVETEDFGMYFCQQSNSWPLTFGAGTKLELK | 
 | binds |  |  |  | 17H8-hFc human-mouse chimeric CD27 monoclonal antibody (antibody, V domains shown) VH: EVKLEESGGGLVQPGGSMKLSCVASGFTFSNYWMNWVRQSPEKGLEWVAEIRLKSNNYATYYAESVKGRFTISRDDSKSSVYLQMNSLRGEDTGIYYCTLYDSSYYYAMDYWGQGTSVTVSS VL: DVVLTQTPLSLPVNIGDQASISCKSTQSLLHSDGFTYLDWYLQKPGQSPQLLIYLVSNRFLGVPDRFSGSGSRTDFTLKISRVEAEDLGVYYCFQSNYLPLTFGGGTKLEI | binding [11]: binds; binding [7]: binds; binding [8]: binds
 |  |  | binds | binds | 17H8 anti-human CD27 mouse monoclonal antibody (hybridoma clone) (antibody, V domains shown) VH: EVKLEESGGGLVQPGGSMKLSCVASGFTFSNYWMNWVRQSPEKGLEWVAEIRLKSNNYATYYAESVKGRFTISRDDSKSSVYLQMNSLRGEDTGIYYCTLYDSSYYYAMDYWGQGTSVTVSS VL: DVVLTQTPLSLPVNIGDQASISCKSTQSLLHSDGFTYLDWYLQKPGQSPQLLIYLVSNRFLGVPDRFSGSGSRTDFTLKISRVEAEDLGVYYCFQSNYLPLTFGGGTKLEI | 

Reference: patent US20260265393A1
